Reference: paper PMC4558729
No constants are given. Whether binding was seen depends on the method and setting. Some binding calls cover weakened binding; strength is not graded here. For part of these data: Tags and fused reporters may be left off the sequences shown.

Amino acid sequences for entries named in this document (tags omitted). A change or cut given only in a name is not applied to a line headed by its entry. Chains listed by the source or under a name are the forms on record and can include a tag or linker.
His6-GST-SET/Taf1β (Q01105, form named): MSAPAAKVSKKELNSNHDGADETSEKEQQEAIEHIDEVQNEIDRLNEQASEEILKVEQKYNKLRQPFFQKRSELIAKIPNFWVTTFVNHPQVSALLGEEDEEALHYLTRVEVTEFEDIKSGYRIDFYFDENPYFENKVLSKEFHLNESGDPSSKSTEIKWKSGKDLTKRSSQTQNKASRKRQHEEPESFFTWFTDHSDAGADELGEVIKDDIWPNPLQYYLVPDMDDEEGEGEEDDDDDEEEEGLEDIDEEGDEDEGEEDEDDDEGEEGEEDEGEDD
UniProt P07305: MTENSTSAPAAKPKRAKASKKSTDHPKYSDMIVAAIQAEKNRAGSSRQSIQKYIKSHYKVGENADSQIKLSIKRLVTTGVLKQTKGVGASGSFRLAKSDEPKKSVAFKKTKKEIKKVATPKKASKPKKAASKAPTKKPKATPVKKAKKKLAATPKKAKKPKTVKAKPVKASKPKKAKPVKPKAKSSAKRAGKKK

Legend:
Tax-His6 (HTLV-1) = Tax-His6 (HTLV-1) (UniProt P03409); experiment: co-purification; band in the purified recombinant Tax preparation; SDS-PAGE, Coomassie
GST-hNAP1 (human) = target: T1, GST-hNAP1 (human) (UniProt P55209); experiment: pull-down; GST-fused histone chaperone (25 pmol) on 20 µl glutathione agarose beads; equal concentration of rH1.0, 16 h, 4 °C; 50 mM Tris-HCl pH 7.9, 150 mM KCl, 12.5 mM MgCl2, 1 mM EDTA, 20 % glycerol, 0.5 % NP40, 0.1 % Chaps, 100 ng/µl BSA; SDS-PAGE, Coomassie; both purified
T1 sequence: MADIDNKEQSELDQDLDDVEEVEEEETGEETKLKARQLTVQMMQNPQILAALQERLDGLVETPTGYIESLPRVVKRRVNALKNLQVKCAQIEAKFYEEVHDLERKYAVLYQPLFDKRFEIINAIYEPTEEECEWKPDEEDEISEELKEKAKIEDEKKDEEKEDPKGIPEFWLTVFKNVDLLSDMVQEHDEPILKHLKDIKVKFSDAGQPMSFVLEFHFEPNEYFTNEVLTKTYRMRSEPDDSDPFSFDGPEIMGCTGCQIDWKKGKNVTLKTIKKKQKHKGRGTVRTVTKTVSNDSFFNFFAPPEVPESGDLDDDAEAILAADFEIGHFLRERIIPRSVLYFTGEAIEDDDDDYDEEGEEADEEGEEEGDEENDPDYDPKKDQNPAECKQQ

[1] = target: His6-GST-SET/Taf1β (human) (UniProt Q01105); experiment: as above

Substance | binding (Tax-His6 (HTLV-1)) | binding (GST-hNAP1 (human)) | binding [1]
GroEL (from UniProt P0A6F5 1-548) | binds | – | –
linker histone rH1.0 (from UniProt P07305 1-194) | – | binds | binds
